# The whole screen tested about 360,000 compounds, of which about 780 (0.22%) were called active. The shares of active, inactive and inconclusive entries below differ from those in the screen. Rule as the data show it: active = inhibition above about 35% (passing the limit was not always enough); inconclusive = no clear call, values can overlap the other calls.
# Test system: Botulinum neurotoxin type F light chain protease (Clostridium botulinum)
# Test: BoNT/F light chain protease inhibitors, primary screen, biochemical, flow cytometry, MLPCN library (AID 588497); also: plate controls were buffer without enzyme for full effect and enzyme alone for no effect
# Settings: Multiplex microsphere protease cleavage assay, at 10 µM, stronger effect = higher value
row,SMILES,inhibition
1,C=CCOCC(O)Cn1c(N2CCCC2)nc2c1c(=O)n(C)c(=O)n2C (configuration not stated),inconclusive: -25%
2,O=C(Oc1ccccc1C(=O)N1CCOCC1)c1ccc(F)cc1,inconclusive: -72%
3,CN1CCN(C(=O)N(c2ccccc2)c2ccccc2)CC1,inconclusive: 11.3%
4,CCn1c(=O)c(C(=O)Nc2ccccc2C)c(O)c2ccccc21,inactive: 6.1%
5,COc1ccc2cc(/C(C)=N/NC(=O)c3cc(C)oc3C)ccc2c1,inactive: -5.1%
6,CCCC1C(C(=O)OCC)=C(C)NC(C)=C1C(=O)OCC,inactive: -24.1%
7,c1ccc2c(c1)CCc1ccccc1C2=C1CCNCC1,inconclusive: -15.9%
8,Cc1c(-c2ccccc2)[n+](=O)c(-c2ccc(Br)cc2)c(C)n1[O-],inconclusive: -0.6%
9,COc1cccc(N=c2oc3ccccc3cc2-c2nc3ccccc3[nH]2)c1,active: 53.8%
10,COc1ccc(CCNC(=O)COc2ccc3c(C)cc(=O)oc3c2)cc1,inactive: 2.6%
11,CCOC(=O)CCC(=O)NCc1ccc2[nH]c(C)cc2c1,inactive: -21.7%
12,CCOC(=O)c1c(C)[nH]c(C(=O)OCc2ccccc2)c1C,inactive: -17.9%
13,CCOC(=O)C1(CCOc2ccccc2)CCN(Cc2ccc(F)c(OC)c2)CC1,active: 40.3%
14,CS(=O)(=O)NCCSc1cc(C(F)(F)F)nc2ccccc12,inconclusive: -75.7%
15,c1ccc(-c2cc3c(nn2)CCc2nonc2-3)cc1,inconclusive: -15.1%
16,CC(=O)c1c(C)nc(-c2ccc(Cl)cc2)nc1N=CN(C)C,inactive: 34.4%
17,CN(c1ccccc1)S(=O)(=O)c1cccc(NC(=O)CN2CCCc3ccccc32)c1,inactive: -7.5%
18,Cc1cc(C)n(S(=O)(=O)c2ccc(C)c(C)c2)n1,inconclusive: -20.7%
19,Cc1ccccc1NC(=O)c1ccc(C)c(S(=O)(=O)N2CCN(C)CC2)c1,inconclusive: 7.4%
20,COc1ccc(Cl)cc1-c1nc(SCC(N)=O)n[nH]1,inactive: -4.1%
21,CCCn1c(C(O)c2cc(OC)c(OC)c(OC)c2)nc2ccccc21 (configuration not stated),inconclusive: -16.3%
22,Cc1nn(-c2ccccc2)c(C)c1/C=N/NC(=O)c1ccccc1O,active: 88.4%
23,Cc1ccc(NC(=O)CCc2nc3ccccc3c(=O)[nH]2)cc1S(=O)(=O)N1CCOCC1,inconclusive: -19.7%

row,SMILES,inhibition
1,Cc1ccc(-n2ncc3c(N4CCC(C(N)=O)CC4)ncnc32)c(C)c1,inactive: 0.2%
2,C=CCNC(=O)c1ccc2nc(Cc3ccc(OC)cc3)oc2c1,inconclusive: -2.1%
3,COc1ccc(/C=N/NC(=O)c2cccnc2)cc1COc1ccc([N+](=O)[O-])c(C)c1,inconclusive: -70.5%
4,CC(=O)Nc1ccc(N/C=C/C(=O)c2ccc(Br)cc2)cc1,inconclusive: -18.3%
5,CS(=O)(=O)N1CCC(C(=O)Nc2cccc(C(F)(F)F)c2)CC1,inactive: -29%
6,CCCC(=O)Nc1cc(OC)c(OC)cc1C(=O)O,inactive: -8.1%
7,COc1ccc(N2CCN(Cc3cc(=O)oc4cc5c(cc34)CCCC5)CC2)cc1,inconclusive: -29.9%
8,O=C1CC(Sc2cccs2)C(=O)N1c1ccccc1 (configuration not stated),inconclusive: 47.5%
9,CC1CCN(S(=O)(=O)c2ccc(C(=O)Nc3sccc3C(N)=O)cc2)CC1,inactive: -4.6%
10,O=C(CN1CCN(Cc2ccc(Cl)cc2)CC1)N/N=C/c1cccs1,inconclusive: 19.2%
11,CCCCC/C=N/NC(=O)c1[nH]c2ccc([N+](=O)[O-])cc2c1C,inconclusive: -17.1%
12,COc1ccc(CCNS(=O)(=O)c2ccc3c(c2)CCN3C(=O)C2CC2)cc1OC,inactive: -9.8%
13,COc1cccc(OCCCn2ccnc2)c1,inconclusive: -11.2%
14,CCOc1ccc(C(=O)CCC(=O)NN2C(=O)NC3(CCCCC3)C2=O)cc1,inconclusive: -14.6%
15,CCCN1C(=O)/C(=C/c2c(NCCCOC(C)C)nc3c(C)cccn3c2=O)SC1=S,active: 35.3%
16,CCC/C(C)=N\Nc1nc2c(c(=O)n(C)c(=O)n2C)n1C,active: 46.4%
17,Nc1nc2c(c(=O)[nH]1)C(c1ccccc1)C1=C(N2)c2ccccc2C1=O (configuration not stated),inactive: -1.9%
18,Cc1ccc(-c2nc3ccc(Br)cn3c2Cc2cccc(Cl)c2)cc1,inactive: -4%
19,CNC(=O)COC(=O)c1ccc(NC(=O)CC#N)cc1,inconclusive: -9.6%
20,COc1ccc(NC(=O)CN(C)C(=O)c2cc(S(=O)(=O)N3CCCCCC3)ccc2OC)cc1,inconclusive: 8.8%
21,Cn1c(CSc2nc3ccccc3s2)nnc1SCC(=O)NCc1ccccn1,inconclusive: 14%
22,O=C(/C=C\Nc1cccc(F)c1)c1ccc2c(c1)OCO2,inconclusive: -7.8%
23,C[N+]1(CC(O)c2ccccc2)CCCCCC1 (configuration not stated),inconclusive: 14.8%

row,SMILES,inhibition
1,CCOC(=O)C(Oc1ccc2c(-c3ccc(OC)cc3)cc(=O)oc2c1C)c1ccccc1 (configuration not stated),inactive: -4.1%
2,CCN(CC)CCCN=Cc1c(O)n(CCc2ccc(OC)c(OC)c2)c(=O)[nH]c1=O,inactive: -0.1%
3,CN(/N=C/c1cccnc1)c1cnn(-c2ccc(F)c(Cl)c2)c(=O)c1Cl,active: 36.4%
4,CC(C)C(=O)Nc1cccc(-c2nc3ncccc3o2)c1,inconclusive: 0.6%
5,N#CC(c1ccc(Cl)cc1)c1ncc(C(F)(F)F)cc1Cl (configuration not stated),inconclusive: 0.9%
6,COc1ccc(S(=O)(=O)/C(C#N)=C/Nc2ccccc2F)cc1,inconclusive: -23.8%
7,COc1ccc(CC(=O)N/N=C(\C)CC(=O)NCc2ccco2)cc1OC,inconclusive: 68.4%
8,Cc1cccc(N(CC(=O)N2CCN(c3ccc(F)cc3)CC2)S(C)(=O)=O)c1C,inactive: 4.8%
9,COc1cccc(/C=C2/C(=O)NN(c3ccccc3)C2=O)c1,inconclusive: -21.3%
10,CCN(CC)S(=O)(=O)c1ccc(N/N=C/c2cc(OC)c(OC)cc2OC)nc1,inactive: 7%
11,Cn1cccc1/C=C1\CC(C(C)(C)C)C/C(=C\c2cccn2C)C1=O (configuration not stated),inactive: -3.5%
12,COc1ccc2c(c1)C(=O)CC(O)(C(F)F)O2 (configuration not stated),inconclusive: -31.9%
13,CC(C)COC(=O)CNc1n[nH]c(=S)[nH]c1=O,inactive: -6.9%
14,COc1ccc(Oc2cccc(Cl)c2CNC(=O)CSCC(=O)O)cc1,inconclusive: -81.7%
15,CC(OC(=O)C1=COCCO1)C(=O)Nc1ccc(Oc2ccccc2)cc1 (configuration not stated),inconclusive: -2.8%
16,CCCCN1C(=O)/C(=C2/Sc3ccc(OC)cc3N2CC)SC1=S,inconclusive: 4%
17,COc1cccc(N2CC(O)Cn3c2nc2c3c(=O)[nH]c(=O)n2C)c1 (configuration not stated),active: 40.8%
18,COc1ccccc1N1CCN(C(=O)/C=C/c2c(Cl)nc3ccccn23)CC1,inactive: 0.1%
19,CCN1CCN(CC(=O)c2c[nH]c3ccccc23)CC1,inconclusive: -31.2%
20,Cc1ccc(C)c(NC(=O)C2CC3CCC2C3)c1 (configuration not stated),inconclusive: -43.3%
21,Cc1cccn2c(=O)c(C=O)c(N3CCN(C)CC3)nc12,inconclusive: -15.8%
22,CCOC(=O)c1ccc(NC(=O)Nc2ccc3c4c(cccc24)C(=O)N3CC)cc1,inactive: -2.2%
23,CCNC(=S)N(C)CCc1cc2c(c(OC)c1C=C1C(=O)N(C)C(=O)N(C)C1=O)OCO2,inconclusive: 29.2%

# A stretch of the results above:
row,SMILES,inhibition
6,COc1ccc(S(=O)(=O)/C(C#N)=C/Nc2ccccc2F)cc1,inconclusive: -23.8%
7,COc1ccc(CC(=O)N/N=C(\C)CC(=O)NCc2ccco2)cc1OC,inconclusive: 68.4%
8,Cc1cccc(N(CC(=O)N2CCN(c3ccc(F)cc3)CC2)S(C)(=O)=O)c1C,inactive: 4.8%
9,COc1cccc(/C=C2/C(=O)NN(c3ccccc3)C2=O)c1,inconclusive: -21.3%
10,CCN(CC)S(=O)(=O)c1ccc(N/N=C/c2cc(OC)c(OC)cc2OC)nc1,inactive: 7%
11,Cn1cccc1/C=C1\CC(C(C)(C)C)C/C(=C\c2cccn2C)C1=O (configuration not stated),inactive: -3.5%

# Following part

row,SMILES,inhibition
1,CCCS(=O)(=O)C/C(N)=N/OC(=O)c1ccc(Cl)cc1,inconclusive: -17.8%
2,CCc1ccc(C(=O)c2ccccc2C(=O)O)s1,inconclusive: -8%
3,O=C1Nc2ccccc2C(O)(C(=O)NCc2ccco2)N1c1ccc(Cl)c(Cl)c1 (configuration not stated),inconclusive: -5.5%
4,Cc1nc2ccccc2c(=O)n1CCc1ccccc1,inconclusive: -8.7%
5,Nc1nc(SCC(=O)c2c(N)n(C3CC3)c(=O)[nH]c2=O)n[nH]1,inconclusive: -6.1%
6,Cc1c(CC(=O)O)c(=O)oc2cc(OCc3ccc(F)cc3Cl)ccc12,inconclusive: -8%
7,COc1ccc2c(c1OC)C(=O)OC2CC(=O)c1ccc(N(C)C)cc1 (configuration not stated),inactive: 4.1%
8,Cc1cc(C)nc(Nc2ccccc2Cl)n1,inconclusive: 28.8%
9,CC(C)C1CC2=C(C(=O)OC(C)(C)O2)C(c2ccc(Cl)cc2)O1 (configuration not stated),inactive: 0.3%
10,Cc1ccc(-n2nc(C)c(=O)c(-c3ccccc3)c2NC(=O)c2cccs2)cc1,inconclusive: 62.2%
11,O=C(c1ccc(Br)cc1)N1CCN(Cc2ccccc2)CC1,inconclusive: -25.5%
12,NS(=O)(=O)c1cnccc1Nc1cccc(F)c1,inconclusive: 22.1%
13,CC1=C(C(=O)OCc2ccccc2)C(c2ccccc2Br)NC(=O)N1 (configuration not stated),inconclusive: -29.6%
14,CC(CCc1ccccc1)NC(=O)CC(C)c1ccccc1 (configuration not stated),inconclusive: -14.8%
15,COCCNC(=O)c1cccc(OC2CCN(Cc3ccccc3OCCO)CC2)c1,inconclusive: 31.2%
16,COc1ccc(-c2nc3ccccc3nc2-c2ccc(OC)c(OC)c2)cc1OC,inconclusive: 31.9%
17,c1ccc(CN(Cc2ccccc2)c2c3c(nc4ncnn24)CCC3)cc1,inconclusive: 19.4%
18,O=C(COc1ccccc1CNCc1ccccc1)Nc1ccccc1,inactive: -12.5%
19,COC(=O)CN(C#N)c1nc(NC(C)C)nc(NC(C)C)n1,inactive: -4%
20,O=C(Nc1ccccc1)c1cc(C2CCCCN2C(=O)CCc2ccccc2)on1 (configuration not stated),inactive: -2.8%
21,Nn1c(SCC(=O)NCCC2=CCCCC2)nnc1C1CCCCC1,inactive: 0.8%
22,O=C(O)C1CCC(CNS(=O)(=O)c2ccc(Br)cc2)CC1 (configuration not stated),inconclusive: -20.4%
23,CCC(CC)N1CCN(C(=O)c2cc(OC)c(OC)c(OC)c2)CC1,inconclusive: -17.3%

# Among those listed so far, 2 have a nitro group on carbon.
row,SMILES,inhibition
3,COc1ccc(/C=N/NC(=O)c2cccnc2)cc1COc1ccc([N+](=O)[O-])c(C)c1,inconclusive: -70.5%
11,CCCCC/C=N/NC(=O)c1[nH]c2ccc([N+](=O)[O-])cc2c1C,inconclusive: -17.1%

# From PubChem BioAssay AID588497 (NMMLSC, 2011)
